Reference: PMC10345124
Results are given in words; binding and its absence hold for the method and conditions named. Binding seen in cells or lysates may run through a third protein. Some entries that bind do so weakly or less than the wild type.

Amino acid sequences for entries named in this document (tags omitted).
UniProt Q05127: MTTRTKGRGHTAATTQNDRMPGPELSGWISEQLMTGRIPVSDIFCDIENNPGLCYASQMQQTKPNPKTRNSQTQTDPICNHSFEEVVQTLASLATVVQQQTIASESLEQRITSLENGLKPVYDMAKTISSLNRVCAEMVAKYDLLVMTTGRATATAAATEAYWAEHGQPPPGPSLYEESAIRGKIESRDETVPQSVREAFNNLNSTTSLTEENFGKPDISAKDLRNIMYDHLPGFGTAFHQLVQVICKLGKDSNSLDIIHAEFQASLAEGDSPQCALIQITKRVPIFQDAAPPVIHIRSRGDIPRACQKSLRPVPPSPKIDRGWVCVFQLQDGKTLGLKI
UniProt Q05318: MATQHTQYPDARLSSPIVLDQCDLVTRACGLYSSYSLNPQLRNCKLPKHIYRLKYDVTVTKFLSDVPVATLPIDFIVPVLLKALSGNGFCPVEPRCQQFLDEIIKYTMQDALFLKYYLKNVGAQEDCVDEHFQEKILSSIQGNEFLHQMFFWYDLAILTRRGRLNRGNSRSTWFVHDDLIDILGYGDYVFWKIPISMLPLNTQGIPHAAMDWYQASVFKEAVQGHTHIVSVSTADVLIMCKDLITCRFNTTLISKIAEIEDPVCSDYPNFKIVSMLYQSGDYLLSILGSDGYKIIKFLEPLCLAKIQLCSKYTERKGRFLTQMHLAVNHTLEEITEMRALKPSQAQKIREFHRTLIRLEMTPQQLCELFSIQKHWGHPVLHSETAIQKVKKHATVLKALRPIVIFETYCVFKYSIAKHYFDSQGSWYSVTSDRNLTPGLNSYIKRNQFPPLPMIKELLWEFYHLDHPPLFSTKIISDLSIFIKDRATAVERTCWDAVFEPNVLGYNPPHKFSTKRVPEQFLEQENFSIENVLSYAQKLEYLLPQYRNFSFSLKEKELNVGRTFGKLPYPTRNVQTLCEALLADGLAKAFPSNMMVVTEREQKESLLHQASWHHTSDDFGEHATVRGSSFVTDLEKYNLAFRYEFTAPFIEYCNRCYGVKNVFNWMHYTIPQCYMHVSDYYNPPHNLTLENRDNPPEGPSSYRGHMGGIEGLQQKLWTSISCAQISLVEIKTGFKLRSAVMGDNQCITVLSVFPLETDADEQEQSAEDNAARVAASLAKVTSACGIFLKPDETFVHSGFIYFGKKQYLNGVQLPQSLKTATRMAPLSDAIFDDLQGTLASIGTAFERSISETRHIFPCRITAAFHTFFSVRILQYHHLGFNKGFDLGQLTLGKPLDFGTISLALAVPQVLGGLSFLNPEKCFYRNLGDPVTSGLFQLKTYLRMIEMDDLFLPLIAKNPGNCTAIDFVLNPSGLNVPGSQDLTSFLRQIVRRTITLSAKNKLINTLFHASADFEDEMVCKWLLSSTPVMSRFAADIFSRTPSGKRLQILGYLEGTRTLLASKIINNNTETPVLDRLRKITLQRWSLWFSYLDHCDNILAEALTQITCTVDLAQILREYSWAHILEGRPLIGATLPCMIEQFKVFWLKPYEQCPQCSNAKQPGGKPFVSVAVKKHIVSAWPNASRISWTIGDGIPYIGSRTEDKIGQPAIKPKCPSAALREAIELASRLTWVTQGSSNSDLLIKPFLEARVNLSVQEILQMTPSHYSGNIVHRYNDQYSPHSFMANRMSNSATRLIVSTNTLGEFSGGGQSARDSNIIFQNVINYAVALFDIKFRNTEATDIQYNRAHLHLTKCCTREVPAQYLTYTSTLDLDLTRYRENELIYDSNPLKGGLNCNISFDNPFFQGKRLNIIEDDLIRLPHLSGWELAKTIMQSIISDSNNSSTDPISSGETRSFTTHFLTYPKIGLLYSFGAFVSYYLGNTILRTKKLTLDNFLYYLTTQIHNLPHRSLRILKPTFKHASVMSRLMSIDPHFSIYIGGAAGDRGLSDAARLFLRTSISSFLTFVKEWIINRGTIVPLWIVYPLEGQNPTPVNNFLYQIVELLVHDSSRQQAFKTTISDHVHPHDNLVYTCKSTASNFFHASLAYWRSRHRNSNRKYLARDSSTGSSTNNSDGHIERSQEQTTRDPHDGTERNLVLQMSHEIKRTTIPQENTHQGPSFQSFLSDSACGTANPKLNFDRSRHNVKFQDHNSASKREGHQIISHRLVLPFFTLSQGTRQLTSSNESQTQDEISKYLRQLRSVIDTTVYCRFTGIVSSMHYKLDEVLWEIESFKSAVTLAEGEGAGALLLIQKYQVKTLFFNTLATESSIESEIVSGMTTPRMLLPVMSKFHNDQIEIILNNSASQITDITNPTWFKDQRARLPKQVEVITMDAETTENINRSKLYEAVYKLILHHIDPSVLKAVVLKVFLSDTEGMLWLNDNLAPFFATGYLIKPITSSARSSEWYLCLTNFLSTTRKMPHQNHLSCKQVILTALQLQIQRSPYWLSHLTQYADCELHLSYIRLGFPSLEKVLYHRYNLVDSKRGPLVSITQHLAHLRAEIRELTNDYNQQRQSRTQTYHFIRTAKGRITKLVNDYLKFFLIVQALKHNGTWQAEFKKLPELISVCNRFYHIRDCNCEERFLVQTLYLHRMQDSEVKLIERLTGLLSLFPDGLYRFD

Molecular target: HA-VP35 (EBOV VP35 with an N-terminal HA epitope tag and flexible linker) (Ebola virus Zaire (EBOV)) (UniProt Q05127)
Assay: co-IP

EBOV large polymerase protein (L), wild type (from UniProt Q05318 1-2212) (enzyme)
binding: binds
